In PubChem BioAssay AID188 (DTP/NCI, 2004):
Shown are survivors of the treated group in tumour-free mice. Counts of survivors are from the toxicity check (mostly the fifth day) where no day follows; animals may have died later. Schedule codes are those of the source, taken here to give the interval after Q, in days (D) or hours (H), and the number of doses after X. Signs of the kind (2×) count equal records among those shown. Some entries were tested several times; the results are listed from low to high.

Test system: CD2F1 mice, nontumored, toxicity/survival
Experiment: NCI In Vivo Anticancer Drug Screen. Data for tumor model Nontumored Animals (Toxicity Test) in CD2F1 (CDF1) mice

`NC(CSC(c1ccccc1)(c1ccccc1)c1ccccc1)C(=O)O` (centres undefined) was tested, and the survivor count (dose: 3.9 mg/kg/injection, schedule: Q01DX009 (ip), vehicle: clinical formulation) was 8 of 8, the survivor count (dose: 5.0 mg/kg/injection, schedule: Q03HX024 (ip), vehicle: water) was 8 of 8 (2×) and the survivor count (dose: 7.8 mg/kg/injection, schedule: Q01DX009 (ip), vehicle: clinical formulation) was 8 of 8. The survivor count (dose: 10.0 mg/kg/injection, schedule: Q01DX009 (ip), vehicle: water) was 8 of 8 (2×), the survivor count (dose: 10.0 mg/kg/injection, schedule: Q03HX008 (ip), vehicle: water) was 8 of 8 and the survivor count (dose: 10.0 mg/kg/injection, schedule: Q03HX016 (ip), vehicle: water) was 8 of 8. For the same compound, the survivor count (dose: 10.0 mg/kg/injection, schedule: Q03HX024 (ip), vehicle: water) was 8 of 8 (2×), the survivor count (dose: 10.0 mg/kg/injection, schedule: Q04DX003 (ip), vehicle: water) was 8 of 8 and the survivor count (dose: 15.6 mg/kg/injection, schedule: Q01DX009 (ip), vehicle: clinical formulation) was 8 of 8. The survivor count (dose: 15.6 mg/kg/injection, schedule: Q03HX024 (oral), vehicle: clinical formulation) was 8 of 8, the survivor count (dose: 20.0 mg/kg/injection, schedule: Q01DX009 (ip), vehicle: water) was 8 of 8 (2×) and the survivor count (dose: 20.0 mg/kg/injection, schedule: Q01DX009 (oral), vehicle: water) was 8 of 8. The survivor count (dose: 20.0 mg/kg/injection, schedule: Q01DX009 (sc), vehicle: water) was 8 of 8, the survivor count (dose: 20.0 mg/kg/injection, schedule: Q03HX008 (ip), vehicle: water) was 8 of 8 and the survivor count (dose: 20.0 mg/kg/injection, schedule: Q03HX016 (ip), vehicle: water) was 8 of 8. For the same compound, the survivor count (dose: 20.0 mg/kg/injection, schedule: Q03HX024 (ip), vehicle: water) was 8 of 8 (2×), the survivor count (dose: 20.0 mg/kg/injection, schedule: Q04DX003 (ip), vehicle: water) was 8 of 8 and the survivor count (dose: 31.3 mg/kg/injection, schedule: Q01DX009 (ip), vehicle: clinical formulation) was 8 of 8. The survivor count (dose: 31.3 mg/kg/injection, schedule: Q01DX009 (oral), vehicle: clinical formulation) was 8 of 8, the survivor count (dose: 31.3 mg/kg/injection, schedule: Q03HX008 (oral), vehicle: clinical formulation) was 8 of 8 and the survivor count (dose: 31.3 mg/kg/injection, schedule: Q03HX016 (oral), vehicle: clinical formulation) was 8 of 8. For the same compound, the survivor count (dose: 31.3 mg/kg/injection, schedule: Q03HX024 (oral), vehicle: clinical formulation) was 8 of 8, the survivor count (dose: 40.0 mg/kg/injection, schedule: Q01DX009 (ip), vehicle: water) was 7 of 8 and 8 of 8 and the survivor count (dose: 40.0 mg/kg/injection, schedule: Q01DX009 (oral), vehicle: water) was 8 of 8 (2×). For the same compound, the survivor count (dose: 40.0 mg/kg/injection, schedule: Q01DX009 (sc), vehicle: water) was 8 of 8, the survivor count (dose: 40.0 mg/kg/injection, schedule: Q03HX008 (ip), vehicle: water) was 5 of 8 and the survivor count (dose: 40.0 mg/kg/injection, schedule: Q03HX016 (ip), vehicle: water) was 5 of 8. For the same compound, the survivor count (dose: 40.0 mg/kg/injection, schedule: Q03HX024 (ip), vehicle: water) was 5 of 8 (2×), the survivor count (dose: 40.0 mg/kg/injection, schedule: Q04DX003 (ip), vehicle: water) was 8 of 8 (2×) and the survivor count (dose: 62.5 mg/kg/injection, schedule: Q01DX009 (ip), vehicle: clinical formulation) was 8 of 8. The survivor count (dose: 62.5 mg/kg/injection, schedule: Q01DX009 (oral), vehicle: clinical formulation) was 8 of 8, the survivor count (dose: 62.5 mg/kg/injection, schedule: Q03HX008 (oral), vehicle: clinical formulation) was 8 of 8 and the survivor count (dose: 62.5 mg/kg/injection, schedule: Q03HX016 (oral), vehicle: clinical formulation) was 8 of 8. The survivor count (dose: 62.5 mg/kg/injection, schedule: Q03HX024 (oral), vehicle: clinical formulation) was 8 of 8, the survivor count (dose: 80.0 mg/kg/injection, schedule: Q01DX001 (ip), vehicle: water) was 7 of 8 and the survivor count (dose: 80.0 mg/kg/injection, schedule: Q01DX009 (ip), vehicle: water) was 2 of 8 and 3 of 6. For the same compound, the survivor count (dose: 80.0 mg/kg/injection, schedule: Q01DX009 (oral), vehicle: water) was 8 of 8 (2×), the survivor count (dose: 80.0 mg/kg/injection, schedule: Q01DX009 (sc), vehicle: water) was 8 of 8 and the survivor count (dose: 80.0 mg/kg/injection, schedule: Q03HX008 (ip), vehicle: water) was 0 of 8. For the same compound, the survivor count (dose: 80.0 mg/kg/injection, schedule: Q03HX016 (ip), vehicle: water) was 0 of 8, the survivor count (dose: 80.0 mg/kg/injection, schedule: Q04DX003 (ip), vehicle: water) was 6 of 8 and 8 of 8 and the survivor count (dose: 80.0 mg/kg/injection, schedule: Q08DX002 (ip), vehicle: water) was 6 of 8. For the same compound, the survivor count (dose: 125.0 mg/kg/injection, schedule: Q01DX009 (oral), vehicle: clinical formulation) was 8 of 8 and the survivor count (dose: 125.0 mg/kg/injection, schedule: Q03HX008 (oral), vehicle: clinical formulation) was 8 of 8.
